Experimental data as given in patent US20110171205A1.
No constants are given. Whether binding was seen depends on the method and setting. In cells and extracts the contact can be indirect. Some binding calls cover weakened binding; strength is not graded here. For part of these data: Where a sequence is shown, tags or fusion partners need not be part of it.

The chains behind the UniProt entries cited, without tags or fusion partners.
UniProt Q08460: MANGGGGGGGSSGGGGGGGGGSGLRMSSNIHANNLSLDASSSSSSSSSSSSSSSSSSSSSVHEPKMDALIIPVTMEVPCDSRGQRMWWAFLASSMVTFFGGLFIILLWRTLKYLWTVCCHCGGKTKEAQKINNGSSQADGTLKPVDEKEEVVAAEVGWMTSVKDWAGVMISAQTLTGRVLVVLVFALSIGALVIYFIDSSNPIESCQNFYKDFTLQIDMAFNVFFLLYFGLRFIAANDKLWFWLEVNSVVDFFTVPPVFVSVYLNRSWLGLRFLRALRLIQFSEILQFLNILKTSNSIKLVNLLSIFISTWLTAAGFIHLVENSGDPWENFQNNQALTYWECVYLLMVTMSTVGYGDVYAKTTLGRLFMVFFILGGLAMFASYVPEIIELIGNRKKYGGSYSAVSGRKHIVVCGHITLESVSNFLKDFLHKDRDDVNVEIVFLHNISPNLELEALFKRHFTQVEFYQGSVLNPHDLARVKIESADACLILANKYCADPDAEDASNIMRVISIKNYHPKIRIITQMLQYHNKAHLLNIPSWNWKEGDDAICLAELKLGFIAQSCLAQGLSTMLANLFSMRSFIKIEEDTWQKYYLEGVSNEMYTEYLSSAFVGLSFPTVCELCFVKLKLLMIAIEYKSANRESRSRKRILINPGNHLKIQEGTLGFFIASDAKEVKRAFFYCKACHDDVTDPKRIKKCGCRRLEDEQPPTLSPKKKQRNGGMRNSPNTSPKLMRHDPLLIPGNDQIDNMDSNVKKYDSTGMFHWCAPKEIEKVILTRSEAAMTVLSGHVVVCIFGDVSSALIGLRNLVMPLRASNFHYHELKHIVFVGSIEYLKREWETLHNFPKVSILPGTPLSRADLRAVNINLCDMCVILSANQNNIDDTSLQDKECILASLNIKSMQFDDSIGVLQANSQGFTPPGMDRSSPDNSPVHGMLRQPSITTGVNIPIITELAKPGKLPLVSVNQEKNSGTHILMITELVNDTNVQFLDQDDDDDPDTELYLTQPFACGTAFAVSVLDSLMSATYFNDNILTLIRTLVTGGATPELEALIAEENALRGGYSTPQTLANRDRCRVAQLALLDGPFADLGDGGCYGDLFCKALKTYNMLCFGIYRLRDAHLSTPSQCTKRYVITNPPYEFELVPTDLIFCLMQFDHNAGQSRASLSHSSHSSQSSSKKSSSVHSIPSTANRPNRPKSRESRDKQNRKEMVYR
UniProt Q12791: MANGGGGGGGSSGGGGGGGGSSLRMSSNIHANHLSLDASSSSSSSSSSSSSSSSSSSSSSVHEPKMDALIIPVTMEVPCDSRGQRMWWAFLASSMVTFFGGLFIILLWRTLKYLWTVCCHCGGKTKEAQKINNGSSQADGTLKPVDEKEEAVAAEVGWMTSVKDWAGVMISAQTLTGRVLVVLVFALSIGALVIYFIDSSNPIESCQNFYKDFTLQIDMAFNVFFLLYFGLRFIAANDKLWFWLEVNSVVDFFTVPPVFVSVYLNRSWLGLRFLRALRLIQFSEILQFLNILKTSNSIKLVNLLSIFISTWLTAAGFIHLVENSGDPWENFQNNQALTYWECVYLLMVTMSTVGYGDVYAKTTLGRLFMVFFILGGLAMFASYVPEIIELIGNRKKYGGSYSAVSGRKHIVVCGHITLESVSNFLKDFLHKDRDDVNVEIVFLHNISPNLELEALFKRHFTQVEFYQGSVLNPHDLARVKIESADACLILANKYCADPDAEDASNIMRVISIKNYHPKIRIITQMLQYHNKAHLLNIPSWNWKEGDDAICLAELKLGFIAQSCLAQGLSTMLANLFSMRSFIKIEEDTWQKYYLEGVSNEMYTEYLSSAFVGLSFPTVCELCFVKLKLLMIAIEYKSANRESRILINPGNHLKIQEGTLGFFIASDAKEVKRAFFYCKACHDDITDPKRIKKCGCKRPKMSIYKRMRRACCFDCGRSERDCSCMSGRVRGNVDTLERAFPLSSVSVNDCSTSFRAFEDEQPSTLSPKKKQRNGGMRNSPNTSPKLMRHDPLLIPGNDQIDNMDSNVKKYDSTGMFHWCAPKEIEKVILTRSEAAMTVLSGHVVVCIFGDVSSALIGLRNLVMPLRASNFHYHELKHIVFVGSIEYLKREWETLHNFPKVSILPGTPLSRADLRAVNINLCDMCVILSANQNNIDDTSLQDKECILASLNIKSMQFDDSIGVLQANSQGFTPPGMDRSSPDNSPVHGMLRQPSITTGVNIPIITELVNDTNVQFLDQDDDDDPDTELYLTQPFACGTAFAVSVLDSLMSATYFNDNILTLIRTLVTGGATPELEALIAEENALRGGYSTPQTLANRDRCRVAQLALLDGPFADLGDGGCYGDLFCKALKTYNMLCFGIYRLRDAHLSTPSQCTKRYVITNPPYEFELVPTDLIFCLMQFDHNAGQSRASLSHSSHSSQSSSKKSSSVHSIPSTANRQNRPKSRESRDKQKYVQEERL

Assays:
[1] = biological target: mSlo, mouse pore-forming α-subunit of the high conductance calcium-activated potassium channel (maxi-K) (mouse) (UniProt Q08460); test: co-immunoprecipitation from co-transfected cells, Western blot; the higher molecular weight m∃4 band preferentially co-immunoprecipitates with mSlo
[2] = biological target: mSlo, mouse pore-forming α-subunit of the high conductance calcium-activated potassium channel (maxi-K) (mouse) (UniProt Q08460); test: co-immunoprecipitation
[3] = biological target: mSlo, mouse pore-forming α-subunit of the high conductance calcium-activated potassium channel (maxi-K) (mouse) (UniProt Q08460); test: co-immunoprecipitation from co-transfected HEK293 cells: mSlo precipitated with antibodies against the α-subunit, Western blot with anti-V5 monoclonal antibody
[4] = biological target: hSlo, human pore-forming α-subunit of the high conductance calcium-activated potassium channel (maxi-K) (human) (UniProt Q12791); test: co-immunoprecipitation from co-transfected HEK 293 cells
[5] = biological target: hSlo, human pore-forming α-subunit of the high conductance calcium-activated potassium channel (maxi-K) (human) (UniProt Q12791); test: co-immunoprecipitation
[6] = biological target: hSlo, human pore-forming α-subunit of the high conductance calcium-activated potassium channel (maxi-K) (human) (UniProt Q12791); test: co-immunoprecipitation from co-transfected HEK 293 cells, Western blot; also seen in the reverse direction (precipitating epitope-tagged ∃4, probing with anti-Slowpoke antibodies); the higher molecular weight h∃4 band is enriched in the hSlo immunoprecipitate

Measured: binding

B1: mouse Slowpoke ∃4 subunit (protein, UniProt Q9JIN6 1-210, looked up, not shown: small tags and cut ends)
chain: MAKLRVSYEYTEAEDKSIRLGLFLIVSGILSLFIFGFCWLSPALQDLQATAANCTVLSVQQIGEVFECTFTCGTDCRGTSQYPCVQVYVNNSESNSRALLHSDQHQLLTNPKCSYIPPCKRENQKNSESVMNWQQYWKDEIGSQPFTCYFNQHQRPEDVLLQRTHDEIALLHCFLWPVVAFVVGVLIVVLTICAKSLAVKAEAMKKRKFS
binds: [1] | [2]

B2: V5 epitope-tagged human C7F2 potassium channel β-subunit (protein, not shown: small tags and cut ends)
chain: MAKLRVAYEYTEAEDKSIRLGLFLIISGVVSLFIFGFCWLSPALQDLQATEANCTVLSVQQIGEVFECTFTCGADCRGTSQYPCVQVYVNNSESNSRALLHSDEHQLLTNPKCSYIPPCKRENQKNLESVMNWQQYWKDEIGSQPFTCYFNQHQRPDDVLLHRTHDEIVLLHCFLWPLVTFVVGVLIVVLTICAKSLAVKAEAMKKRKFS
binds: [3] | [4] | [5] | [6]
